Test results from the supplement of paper PMC12823440, “Inhibitors supercharge kinase turnover through native proteolytic circuits” (Nature, 2025).
Counter-ions that a name gives are not always drawn. The list shows a part of the results. Hit calls seldom repeat between salt and free forms of one compound.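 Kinases were expressed as nanoluciferase fusions in K562 cells and luminescence was read every 4 h between 2 and 18 h as percent of control, DMSO set to 100% and a positive control to 0%. A time point counts as decreased when the signal drops significantly (2 sigma). The hit call is the authors' own, does not follow from the count of time points alone, and its rule is not shown.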

By UniProt entry, the sequences of proteins in these tests, tags left out. Where a name states a change or a piece, a line headed by the entry shows the natural chain unless it says otherwise.
UniProt P28482, whole entry: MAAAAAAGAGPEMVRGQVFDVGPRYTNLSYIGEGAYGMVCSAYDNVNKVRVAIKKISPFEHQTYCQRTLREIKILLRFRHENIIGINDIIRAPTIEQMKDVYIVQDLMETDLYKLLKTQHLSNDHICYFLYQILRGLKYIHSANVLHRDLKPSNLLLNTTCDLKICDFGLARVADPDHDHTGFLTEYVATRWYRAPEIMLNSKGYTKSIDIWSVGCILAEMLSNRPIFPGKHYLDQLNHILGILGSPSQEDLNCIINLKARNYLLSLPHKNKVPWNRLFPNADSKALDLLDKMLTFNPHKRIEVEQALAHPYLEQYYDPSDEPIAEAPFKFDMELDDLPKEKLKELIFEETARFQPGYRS
UniProt P49137, whole entry, looked up: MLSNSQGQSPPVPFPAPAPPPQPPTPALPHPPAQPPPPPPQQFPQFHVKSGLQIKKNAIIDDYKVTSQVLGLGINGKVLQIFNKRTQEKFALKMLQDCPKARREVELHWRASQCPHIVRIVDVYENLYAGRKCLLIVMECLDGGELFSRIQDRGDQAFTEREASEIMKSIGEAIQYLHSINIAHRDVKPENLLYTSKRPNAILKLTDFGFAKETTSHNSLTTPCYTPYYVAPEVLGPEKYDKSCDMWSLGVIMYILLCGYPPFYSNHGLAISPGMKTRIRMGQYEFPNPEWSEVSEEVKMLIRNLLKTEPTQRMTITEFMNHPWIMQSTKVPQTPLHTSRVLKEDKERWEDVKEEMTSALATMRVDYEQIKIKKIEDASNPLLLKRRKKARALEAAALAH
UniProt Q9BUB5: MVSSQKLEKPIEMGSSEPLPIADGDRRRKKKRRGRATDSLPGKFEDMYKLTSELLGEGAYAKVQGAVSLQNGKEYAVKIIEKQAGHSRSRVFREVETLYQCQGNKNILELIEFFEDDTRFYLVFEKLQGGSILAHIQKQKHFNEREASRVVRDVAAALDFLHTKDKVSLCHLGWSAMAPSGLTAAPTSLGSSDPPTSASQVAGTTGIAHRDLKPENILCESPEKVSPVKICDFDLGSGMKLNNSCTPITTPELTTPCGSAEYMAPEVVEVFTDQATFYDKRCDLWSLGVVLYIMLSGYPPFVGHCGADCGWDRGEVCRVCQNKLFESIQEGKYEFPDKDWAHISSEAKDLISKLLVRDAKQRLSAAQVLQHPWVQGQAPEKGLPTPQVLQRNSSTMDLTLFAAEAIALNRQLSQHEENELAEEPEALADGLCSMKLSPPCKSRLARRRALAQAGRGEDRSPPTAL
UniProt Q16620, whole entry, looked up: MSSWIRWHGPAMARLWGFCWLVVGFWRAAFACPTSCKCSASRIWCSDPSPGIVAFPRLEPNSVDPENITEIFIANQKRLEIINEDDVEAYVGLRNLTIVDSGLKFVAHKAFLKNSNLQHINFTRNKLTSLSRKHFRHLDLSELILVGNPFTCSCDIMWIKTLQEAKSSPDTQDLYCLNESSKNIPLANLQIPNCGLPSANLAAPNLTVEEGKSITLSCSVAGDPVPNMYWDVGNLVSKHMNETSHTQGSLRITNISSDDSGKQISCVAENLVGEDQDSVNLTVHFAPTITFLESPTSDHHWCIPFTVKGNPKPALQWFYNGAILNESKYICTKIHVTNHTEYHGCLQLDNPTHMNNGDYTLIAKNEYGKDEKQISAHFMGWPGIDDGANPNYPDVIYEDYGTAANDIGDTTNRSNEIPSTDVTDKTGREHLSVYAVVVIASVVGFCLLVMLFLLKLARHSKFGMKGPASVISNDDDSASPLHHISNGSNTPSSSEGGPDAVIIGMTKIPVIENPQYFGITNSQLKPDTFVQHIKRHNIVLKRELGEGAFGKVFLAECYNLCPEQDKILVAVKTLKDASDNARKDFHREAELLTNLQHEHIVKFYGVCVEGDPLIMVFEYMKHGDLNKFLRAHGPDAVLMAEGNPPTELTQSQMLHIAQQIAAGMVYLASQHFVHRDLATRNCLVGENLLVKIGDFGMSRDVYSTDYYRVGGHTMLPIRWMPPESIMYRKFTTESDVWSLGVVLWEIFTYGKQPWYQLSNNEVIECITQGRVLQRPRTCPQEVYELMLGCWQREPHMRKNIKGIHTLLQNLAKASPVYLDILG
UniProt O96013: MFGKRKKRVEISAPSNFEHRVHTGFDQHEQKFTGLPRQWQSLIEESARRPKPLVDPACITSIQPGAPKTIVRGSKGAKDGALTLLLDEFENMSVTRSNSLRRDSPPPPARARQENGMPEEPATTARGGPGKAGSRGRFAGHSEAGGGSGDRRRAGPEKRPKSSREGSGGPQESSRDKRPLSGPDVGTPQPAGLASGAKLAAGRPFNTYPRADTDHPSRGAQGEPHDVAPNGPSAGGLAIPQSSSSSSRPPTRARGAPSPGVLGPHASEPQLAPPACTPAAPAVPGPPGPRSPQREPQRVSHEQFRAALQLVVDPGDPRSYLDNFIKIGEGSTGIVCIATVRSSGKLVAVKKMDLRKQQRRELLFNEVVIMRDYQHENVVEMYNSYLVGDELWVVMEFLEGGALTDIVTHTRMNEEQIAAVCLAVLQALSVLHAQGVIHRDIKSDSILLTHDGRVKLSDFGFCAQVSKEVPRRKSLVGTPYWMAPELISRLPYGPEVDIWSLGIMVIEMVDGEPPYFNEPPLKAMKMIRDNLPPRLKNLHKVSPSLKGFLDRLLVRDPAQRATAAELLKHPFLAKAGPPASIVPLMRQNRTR
UniProt Q96KB5: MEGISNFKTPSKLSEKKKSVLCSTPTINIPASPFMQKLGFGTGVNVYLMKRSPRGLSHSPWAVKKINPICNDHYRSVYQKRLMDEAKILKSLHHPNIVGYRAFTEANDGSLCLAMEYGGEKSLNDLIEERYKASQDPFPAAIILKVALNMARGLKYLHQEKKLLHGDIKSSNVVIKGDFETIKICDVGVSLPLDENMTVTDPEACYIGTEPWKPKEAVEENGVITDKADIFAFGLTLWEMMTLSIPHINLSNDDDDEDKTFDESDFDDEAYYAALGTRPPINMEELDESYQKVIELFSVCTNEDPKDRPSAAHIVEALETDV
UniProt Q9UBF8: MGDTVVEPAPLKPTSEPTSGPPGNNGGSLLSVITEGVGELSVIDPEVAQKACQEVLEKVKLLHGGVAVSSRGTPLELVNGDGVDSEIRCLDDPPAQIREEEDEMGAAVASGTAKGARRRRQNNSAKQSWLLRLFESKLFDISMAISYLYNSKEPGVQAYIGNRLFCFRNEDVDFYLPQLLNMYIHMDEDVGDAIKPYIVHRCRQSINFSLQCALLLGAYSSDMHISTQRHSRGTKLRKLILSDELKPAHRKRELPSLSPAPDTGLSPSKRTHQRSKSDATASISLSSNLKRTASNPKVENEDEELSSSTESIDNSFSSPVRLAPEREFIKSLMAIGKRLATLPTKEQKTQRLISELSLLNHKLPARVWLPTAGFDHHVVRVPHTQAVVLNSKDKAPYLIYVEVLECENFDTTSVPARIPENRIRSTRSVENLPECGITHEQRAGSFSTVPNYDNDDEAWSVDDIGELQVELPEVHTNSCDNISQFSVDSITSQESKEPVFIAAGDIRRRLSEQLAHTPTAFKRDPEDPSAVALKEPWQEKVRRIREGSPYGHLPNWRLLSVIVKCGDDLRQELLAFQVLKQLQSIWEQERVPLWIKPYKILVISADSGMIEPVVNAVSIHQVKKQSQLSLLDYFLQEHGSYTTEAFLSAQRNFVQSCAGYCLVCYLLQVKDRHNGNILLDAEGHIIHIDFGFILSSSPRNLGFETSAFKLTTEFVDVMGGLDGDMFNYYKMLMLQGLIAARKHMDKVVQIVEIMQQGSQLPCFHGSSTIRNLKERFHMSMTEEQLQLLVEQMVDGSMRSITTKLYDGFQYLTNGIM
UniProt P53350, whole entry: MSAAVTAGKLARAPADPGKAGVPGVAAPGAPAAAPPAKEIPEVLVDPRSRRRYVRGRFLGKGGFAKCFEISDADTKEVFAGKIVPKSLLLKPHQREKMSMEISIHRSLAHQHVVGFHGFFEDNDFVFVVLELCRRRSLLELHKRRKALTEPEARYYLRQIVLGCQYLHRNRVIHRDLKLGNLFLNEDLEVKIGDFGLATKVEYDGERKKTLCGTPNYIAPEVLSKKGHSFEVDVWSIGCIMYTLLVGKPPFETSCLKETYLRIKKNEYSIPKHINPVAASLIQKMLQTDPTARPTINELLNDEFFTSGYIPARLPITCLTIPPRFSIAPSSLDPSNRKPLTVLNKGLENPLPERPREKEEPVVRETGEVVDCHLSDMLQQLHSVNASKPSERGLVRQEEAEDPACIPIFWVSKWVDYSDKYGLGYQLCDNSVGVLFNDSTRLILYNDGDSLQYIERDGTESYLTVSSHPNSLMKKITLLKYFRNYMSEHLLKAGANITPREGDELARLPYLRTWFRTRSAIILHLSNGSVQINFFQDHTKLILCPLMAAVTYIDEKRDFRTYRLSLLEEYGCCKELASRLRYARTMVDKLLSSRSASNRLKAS
UniProt Q05397, whole entry, looked up: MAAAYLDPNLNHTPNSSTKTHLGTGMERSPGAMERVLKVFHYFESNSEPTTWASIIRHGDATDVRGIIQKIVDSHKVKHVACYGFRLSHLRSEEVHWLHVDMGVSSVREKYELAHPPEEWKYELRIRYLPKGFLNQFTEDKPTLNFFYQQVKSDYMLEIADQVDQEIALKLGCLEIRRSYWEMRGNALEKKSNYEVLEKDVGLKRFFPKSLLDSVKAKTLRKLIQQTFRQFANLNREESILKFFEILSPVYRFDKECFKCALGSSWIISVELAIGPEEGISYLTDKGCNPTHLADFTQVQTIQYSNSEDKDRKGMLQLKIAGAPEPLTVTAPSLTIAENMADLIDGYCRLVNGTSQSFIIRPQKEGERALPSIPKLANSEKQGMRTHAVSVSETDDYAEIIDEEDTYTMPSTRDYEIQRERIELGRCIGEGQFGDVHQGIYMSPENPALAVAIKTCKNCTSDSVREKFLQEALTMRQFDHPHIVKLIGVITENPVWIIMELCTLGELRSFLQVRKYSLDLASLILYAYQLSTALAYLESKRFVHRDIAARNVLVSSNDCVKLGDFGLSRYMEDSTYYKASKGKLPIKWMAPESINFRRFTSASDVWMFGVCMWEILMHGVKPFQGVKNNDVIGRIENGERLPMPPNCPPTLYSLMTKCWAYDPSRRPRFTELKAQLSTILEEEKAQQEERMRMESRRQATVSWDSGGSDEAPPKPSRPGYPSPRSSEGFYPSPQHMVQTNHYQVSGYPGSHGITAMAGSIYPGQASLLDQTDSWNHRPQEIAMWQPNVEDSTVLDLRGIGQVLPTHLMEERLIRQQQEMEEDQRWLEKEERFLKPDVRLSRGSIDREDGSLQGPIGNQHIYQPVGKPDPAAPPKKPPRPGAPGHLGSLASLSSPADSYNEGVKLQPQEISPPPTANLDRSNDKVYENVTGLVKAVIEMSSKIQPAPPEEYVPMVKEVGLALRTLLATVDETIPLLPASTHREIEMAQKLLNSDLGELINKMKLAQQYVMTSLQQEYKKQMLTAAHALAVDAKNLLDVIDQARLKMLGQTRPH
UniProt Q14289, whole entry, looked up: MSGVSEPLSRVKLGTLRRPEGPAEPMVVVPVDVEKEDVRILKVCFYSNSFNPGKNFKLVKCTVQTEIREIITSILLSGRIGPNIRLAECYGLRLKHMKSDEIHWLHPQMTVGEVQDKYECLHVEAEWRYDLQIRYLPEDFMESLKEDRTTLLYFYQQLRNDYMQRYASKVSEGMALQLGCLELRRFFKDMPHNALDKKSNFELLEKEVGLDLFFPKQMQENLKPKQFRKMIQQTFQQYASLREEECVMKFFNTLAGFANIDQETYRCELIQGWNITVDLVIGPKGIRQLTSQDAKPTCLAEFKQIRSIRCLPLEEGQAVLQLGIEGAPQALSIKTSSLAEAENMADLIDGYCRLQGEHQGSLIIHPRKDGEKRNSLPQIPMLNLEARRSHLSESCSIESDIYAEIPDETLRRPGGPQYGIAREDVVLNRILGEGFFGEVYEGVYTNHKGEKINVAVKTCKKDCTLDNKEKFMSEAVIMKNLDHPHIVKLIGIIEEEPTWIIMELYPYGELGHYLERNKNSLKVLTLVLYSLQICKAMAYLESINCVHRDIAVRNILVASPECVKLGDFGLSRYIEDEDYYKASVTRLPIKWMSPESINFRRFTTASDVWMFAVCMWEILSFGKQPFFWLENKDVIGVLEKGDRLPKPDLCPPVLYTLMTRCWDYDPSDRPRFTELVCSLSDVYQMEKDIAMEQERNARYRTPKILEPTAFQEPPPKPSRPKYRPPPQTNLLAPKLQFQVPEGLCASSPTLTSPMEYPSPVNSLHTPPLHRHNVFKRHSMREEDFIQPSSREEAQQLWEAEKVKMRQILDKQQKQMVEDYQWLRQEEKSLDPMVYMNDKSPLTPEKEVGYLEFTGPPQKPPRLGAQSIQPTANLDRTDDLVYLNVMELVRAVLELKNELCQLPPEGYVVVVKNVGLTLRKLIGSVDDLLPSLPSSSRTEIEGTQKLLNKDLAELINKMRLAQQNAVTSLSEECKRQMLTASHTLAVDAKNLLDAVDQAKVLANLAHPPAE

Columns and labels:
Assay in all cases: kinase-Nluc reporter destabilization hit call (1 = scored as downregulated) (binary); higher = compound decreases kinase abundance
Details in all cases: K562, 2-18 h
[1] = target: MAPK1 (UniProt P28482)
[2] = target: MAPK4 (UniProt P31152)
[3] = target: MAPKAPK2 (UniProt P49137)
[4] = target: MKNK1 (UniProt Q9BUB5)
[5] = target: NTRK2 (UniProt Q16620)
[6] = target: NTRK3 (UniProt Q16288)
[7] = target: PAK4 (UniProt O96013)
[8] = target: PBK (UniProt Q96KB5)
[9] = target: PDGFRB (UniProt P09619)
[10] = target: PDK1 (UniProt Q15118)
[11] = target: PDPK1 (UniProt O15530)
[12] = target: PIK4CA (UniProt P42356)
[13] = target: PIK4CB (UniProt Q9UBF8)
[14] = target: PLK1 (UniProt P53350)
[15] = target: PRKAA1 (UniProt Q13131)
[16] = target: PRKCA (UniProt P17252)
[17] = target: PTK2 (UniProt Q05397)
[18] = target: PTK2B (UniProt Q14289)
[19] = target: RAF1 (UniProt P04049)
[20] = target: RAF1_S257L (clone: RAF1_mut) (UniProt P04049)

Measured: kinase-Nluc reporter destabilization hit call

CC(C)Nc1cc(-c2c[nH]c(C(=O)N[C@H](CO)c3cccc(Cl)c3)c2)c(Cl)cn1 [Ulixertinib]
inactive: [1]; 10 µM 0 | [2]; 10 µM 0 | [3]; 10 µM 0 | [4]; 10 µM 0 | [5]; 10 µM 0 | [6]; 10 µM 0 | [7]; 10 µM 0 | [8]; 10 µM 0 | [9]; 10 µM 0 | [10]; 10 µM 0 | [11]; 10 µM 0 | [12]; 10 µM 0 | [13]; 10 µM 0 | [14]; 10 µM 0 | [15]; 10 µM 0 | [16]; 10 µM 0 | [17]; 10 µM 0 | [18]; 10 µM 0 | [19]; 10 µM 0 | [20]; 10 µM 0

CCCC(=O)Nc1ncnc2c1ncn2[C@@H]1O[C@@H]2COP(=O)(O)O[C@H]2[C@H]1OC(=O)CCC [Bucladesine (calcium)]
inactive: [1]; 10 µM 0 | [2]; 10 µM 0 | [3]; 10 µM 0 | [4]; 10 µM 0 | [5]; 10 µM 0 | [6]; 10 µM 0 | [7]; 10 µM 0 | [8]; 10 µM 0 | [9]; 10 µM 0 | [10]; 10 µM 0 | [11]; 10 µM 0 | [12]; 10 µM 0 | [13]; 10 µM 0 | [14]; 10 µM 0 | [15]; 10 µM 0 | [16]; 10 µM 0 | [17]; 10 µM 0 | [18]; 10 µM 0 | [19]; 10 µM 0 | [20]; 10 µM 0

Cc1cc(Nc2ncc(Cl)c(Nc3ccccc3S(=O)(=O)C(C)C)n2)c(OC(C)C)cc1C1CCNCC1 [Ceritinib]
inactive: [1]; 2.5 µM 0 | [2]; 2.5 µM 0 | [3]; 2.5 µM 0 | [4]; 2.5 µM 0 | [5]; 2.5 µM 0 | [6]; 2.5 µM 0 | [7]; 2.5 µM 0 | [8]; 2.5 µM 0 | [9]; 2.5 µM 0 | [10]; 2.5 µM 0 | [11]; 2.5 µM 0 | [12]; 2.5 µM 0 | [13]; 2.5 µM 0 | [14]; 2.5 µM 0 | [15]; 2.5 µM 0 | [16]; 2.5 µM 0 | [17]; 2.5 µM 0 | [18]; 2.5 µM 0 | [19]; 2.5 µM 0 | [20]; 2.5 µM 0

CNC(=O)c1cc(Oc2ccc(NC(=O)Nc3ccc(Cl)c(C(F)(F)F)c3)c(F)c2)ccn1 [Regorafenib]
inactive: [1]; 2.5 µM 0 | [2]; 2.5 µM 0 | [3]; 2.5 µM 0 | [4]; 2.5 µM 0 | [5]; 2.5 µM 0 | [6]; 2.5 µM 0 | [7]; 2.5 µM 0 | [8]; 2.5 µM 0 | [9]; 2.5 µM 0 | [10]; 2.5 µM 0 | [11]; 2.5 µM 0 | [12]; 2.5 µM 0 | [13]; 2.5 µM 0 | [14]; 2.5 µM 0 | [15]; 2.5 µM 0 | [16]; 2.5 µM 0 | [17]; 2.5 µM 0 | [18]; 2.5 µM 0 | [19]; 2.5 µM 0 | [20]; 2.5 µM 0

CCc1nc(C(N)=O)c(Nc2ccc(N3CCC(N4CCN(C)CC4)CC3)c(OC)c2)nc1NC1CCOCC1 [Gilteritinib]
inactive: [1]; 2 µM 0 | [2]; 2 µM 0 | [3]; 2 µM 0 | [4]; 2 µM 0 | [5]; 2 µM 0 | [6]; 2 µM 0 | [7]; 2 µM 0 | [8]; 2 µM 0 | [9]; 2 µM 0 | [10]; 2 µM 0 | [11]; 2 µM 0 | [12]; 2 µM 0 | [13]; 2 µM 0 | [14]; 2 µM 0 | [15]; 2 µM 0 | [17]; 2 µM 0 | [18]; 2 µM 0 | [19]; 2 µM 0 | [20]; 2 µM 0

COc1cc2nccc(Oc3ccc(NC(=O)C4(C(=O)Nc5ccc(F)cc5)CC4)cc3)c2cc1OC [Cabozantinib]
inactive: [1]; 2.5 µM 0 | [2]; 2.5 µM 0 | [3]; 2.5 µM 0 | [4]; 2.5 µM 0 | [5]; 2.5 µM 0 | [6]; 2.5 µM 0 | [7]; 2.5 µM 0 | [8]; 2.5 µM 0 | [9]; 2.5 µM 0 | [10]; 2.5 µM 0 | [11]; 2.5 µM 0 | [12]; 2.5 µM 0 | [13]; 2.5 µM 0 | [14]; 2.5 µM 0 | [15]; 2.5 µM 0 | [16]; 2.5 µM 0 | [17]; 2.5 µM 0 | [18]; 2.5 µM 0 | [19]; 2.5 µM 0 | [20]; 2.5 µM 0

O=C1Nc2ccccc2/C1=C/c1ccccn1 [GSK-3β inhibitor 1]
inactive: [1]; 10 µM 0 | [2]; 10 µM 0 | [3]; 10 µM 0 | [4]; 10 µM 0 | [5]; 10 µM 0 | [6]; 10 µM 0 | [7]; 10 µM 0 | [8]; 10 µM 0 | [9]; 10 µM 0 | [10]; 10 µM 0 | [11]; 10 µM 0 | [12]; 10 µM 0 | [13]; 10 µM 0 | [14]; 10 µM 0 | [15]; 10 µM 0 | [16]; 10 µM 0 | [17]; 10 µM 0 | [18]; 10 µM 0 | [19]; 10 µM 0 | [20]; 10 µM 0

N=C(N)NC(=O)c1nc(Cl)c(N)nc1N [Amiloride (hydrochloride)]
inactive: [1]; 10 µM 0 | [2]; 10 µM 0 | [3]; 10 µM 0 | [4]; 10 µM 0 | [5]; 10 µM 0 | [6]; 10 µM 0 | [7]; 10 µM 0 | [8]; 10 µM 0 | [9]; 10 µM 0 | [10]; 10 µM 0 | [11]; 10 µM 0 | [12]; 10 µM 0 | [13]; 10 µM 0 | [14]; 10 µM 0 | [15]; 10 µM 0 | [16]; 10 µM 0 | [17]; 10 µM 0 | [18]; 10 µM 0 | [19]; 10 µM 0 | [20]; 10 µM 0

C[C@H](Nc1cc(-c2cnn(C)c2)cc(Nc2cnccn2)n1)c1ccc(F)cc1 [Ilginatinib hydrochloride]
inactive: [1]; 2.5 µM 0 | [2]; 2.5 µM 0 | [3]; 2.5 µM 0 | [4]; 2.5 µM 0 | [5]; 2.5 µM 0 | [6]; 2.5 µM 0 | [7]; 2.5 µM 0 | [8]; 2.5 µM 0 | [9]; 2.5 µM 0 | [10]; 2.5 µM 0 | [11]; 2.5 µM 0 | [12]; 2.5 µM 0 | [13]; 2.5 µM 0 | [14]; 2.5 µM 0 | [16]; 2.5 µM 0 | [17]; 2.5 µM 0 | [18]; 2.5 µM 0 | [19]; 2.5 µM 0 | [20]; 2.5 µM 0
active: [15]; 2.5 µM 1

Taken from above (two entries):
COc1cc2nccc(Oc3ccc(NC(=O)C4(C(=O)Nc5ccc(F)cc5)CC4)cc3)c2cc1OC [Cabozantinib]
inactive: [1]; 2.5 µM 0 | [2]; 2.5 µM 0 | [3]; 2.5 µM 0 | [4]; 2.5 µM 0 | [5]; 2.5 µM 0 | [6]; 2.5 µM 0 | [7]; 2.5 µM 0 | [8]; 2.5 µM 0 | [9]; 2.5 µM 0 | [10]; 2.5 µM 0 | [11]; 2.5 µM 0 | [12]; 2.5 µM 0 | [13]; 2.5 µM 0 | [14]; 2.5 µM 0 | [15]; 2.5 µM 0 | [16]; 2.5 µM 0 | [17]; 2.5 µM 0 | [18]; 2.5 µM 0 | [19]; 2.5 µM 0 | [20]; 2.5 µM 0

O=C1Nc2ccccc2/C1=C/c1ccccn1 [GSK-3β inhibitor 1]
inactive: [1]; 10 µM 0 | [2]; 10 µM 0 | [3]; 10 µM 0 | [4]; 10 µM 0 | [5]; 10 µM 0 | [6]; 10 µM 0 | [7]; 10 µM 0 | [8]; 10 µM 0 | [9]; 10 µM 0 | [10]; 10 µM 0 | [11]; 10 µM 0 | [12]; 10 µM 0 | [13]; 10 µM 0 | [14]; 10 µM 0 | [15]; 10 µM 0 | [16]; 10 µM 0 | [17]; 10 µM 0 | [18]; 10 µM 0 | [19]; 10 µM 0 | [20]; 10 µM 0
